These are yes or no findings as the source states them, for the method shown. Binding seen in cells or lysates may run through a third protein. Some results given as binding are weak or reduced against the parent protein; the word gives no strength.
Target: GPRC5A-GFP (human (cDNA from TREX-BCBL-1 cells)) (UniProt Q8NFJ5)
Test: co-IP

By UniProt entry, the sequences of proteins in these tests, tags left out.
UniProt Q8NFJ5: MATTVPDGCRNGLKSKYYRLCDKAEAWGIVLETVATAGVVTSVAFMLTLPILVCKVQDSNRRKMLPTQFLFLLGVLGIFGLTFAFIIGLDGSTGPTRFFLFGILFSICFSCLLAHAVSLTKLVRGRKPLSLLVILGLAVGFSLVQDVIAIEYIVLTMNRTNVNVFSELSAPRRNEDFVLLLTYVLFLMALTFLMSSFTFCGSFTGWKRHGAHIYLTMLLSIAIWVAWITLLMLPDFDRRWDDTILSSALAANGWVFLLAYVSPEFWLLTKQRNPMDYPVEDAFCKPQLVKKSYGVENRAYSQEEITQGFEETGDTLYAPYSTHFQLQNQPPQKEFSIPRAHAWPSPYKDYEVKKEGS

B1: FLOT1 (protein, UniProt O75955 1-427)
chain: MFFTCGPNEAMVVSGFCRSPPVMVAGGRVFVLPCIQQIQRISLNTLTLNVKSEKVYTRHGVPISVTGIAQVKIQGQNKEMLAAACQMFLGKTEAEIAHIALETLEGHQRAIMAHMTVEEIYKDRQKFSEQVFKVASSDLVNMGISVVSYTLKDIHDDQDYLHSLGKARTAQVQKDARIGEAEAKRDAGIREAKAKQEKVSAQYLSEIEMAKAQRDYELKKAAYDIEVNTRRAQADLAYQLQVAKTKQQIEEQRVQVQVVERAQQVAVQEQEIARREKELEARVRKPAEAERYKLERLAEAEKSQLIMQAEAEAASVRMRGEAEAFAIGARARAEAEQMAKKAEAFQLYQEAAQLDMLLEKLPQVAEEISGPLTSANKITLVSSGSGTMGAAKVTGEVLDILTRLPESVERLTGVSISQVNHKPLRTA
binding: binds
